Experimental findings from the supplement of paper PMC10849652 are described below.

Chains of the proteins cited; added tags and fusions are not shown. Lines headed by an entry give the natural chain unless they say otherwise; changes in a name come on top.
UniProt Q8NC51: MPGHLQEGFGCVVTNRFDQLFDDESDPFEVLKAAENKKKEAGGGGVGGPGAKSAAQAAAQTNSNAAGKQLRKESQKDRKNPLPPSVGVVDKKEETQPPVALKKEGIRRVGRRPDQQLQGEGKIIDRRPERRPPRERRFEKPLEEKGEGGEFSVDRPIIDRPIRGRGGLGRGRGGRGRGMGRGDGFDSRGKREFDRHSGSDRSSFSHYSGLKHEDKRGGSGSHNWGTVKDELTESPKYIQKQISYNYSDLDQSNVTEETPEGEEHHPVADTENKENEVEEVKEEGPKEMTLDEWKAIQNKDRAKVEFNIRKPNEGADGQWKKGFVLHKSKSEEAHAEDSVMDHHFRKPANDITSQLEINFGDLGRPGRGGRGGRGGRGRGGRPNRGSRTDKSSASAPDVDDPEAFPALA
UniProt Q9NTG7: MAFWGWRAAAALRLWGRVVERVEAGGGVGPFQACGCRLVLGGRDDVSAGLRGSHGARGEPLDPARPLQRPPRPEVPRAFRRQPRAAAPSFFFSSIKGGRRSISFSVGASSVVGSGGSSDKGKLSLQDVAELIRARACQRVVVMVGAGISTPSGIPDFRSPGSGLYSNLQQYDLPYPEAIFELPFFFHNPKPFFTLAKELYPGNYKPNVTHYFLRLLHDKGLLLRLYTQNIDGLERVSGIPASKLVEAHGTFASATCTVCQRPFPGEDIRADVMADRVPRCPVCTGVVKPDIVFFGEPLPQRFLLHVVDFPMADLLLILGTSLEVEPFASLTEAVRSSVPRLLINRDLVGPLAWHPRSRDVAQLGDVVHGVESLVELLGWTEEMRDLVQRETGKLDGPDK
UniProt O75563, whole entry, looked up: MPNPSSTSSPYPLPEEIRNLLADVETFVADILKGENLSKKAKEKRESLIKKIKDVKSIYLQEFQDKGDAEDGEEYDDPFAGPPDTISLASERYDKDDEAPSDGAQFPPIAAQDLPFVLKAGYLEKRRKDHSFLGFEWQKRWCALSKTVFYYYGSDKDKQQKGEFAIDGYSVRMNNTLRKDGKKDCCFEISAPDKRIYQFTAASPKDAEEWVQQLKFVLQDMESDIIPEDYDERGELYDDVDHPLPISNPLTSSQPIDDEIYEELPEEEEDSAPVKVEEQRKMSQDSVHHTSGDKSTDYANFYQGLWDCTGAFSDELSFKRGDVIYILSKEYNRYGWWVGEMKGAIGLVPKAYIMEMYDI
UniProt Q2M3G4: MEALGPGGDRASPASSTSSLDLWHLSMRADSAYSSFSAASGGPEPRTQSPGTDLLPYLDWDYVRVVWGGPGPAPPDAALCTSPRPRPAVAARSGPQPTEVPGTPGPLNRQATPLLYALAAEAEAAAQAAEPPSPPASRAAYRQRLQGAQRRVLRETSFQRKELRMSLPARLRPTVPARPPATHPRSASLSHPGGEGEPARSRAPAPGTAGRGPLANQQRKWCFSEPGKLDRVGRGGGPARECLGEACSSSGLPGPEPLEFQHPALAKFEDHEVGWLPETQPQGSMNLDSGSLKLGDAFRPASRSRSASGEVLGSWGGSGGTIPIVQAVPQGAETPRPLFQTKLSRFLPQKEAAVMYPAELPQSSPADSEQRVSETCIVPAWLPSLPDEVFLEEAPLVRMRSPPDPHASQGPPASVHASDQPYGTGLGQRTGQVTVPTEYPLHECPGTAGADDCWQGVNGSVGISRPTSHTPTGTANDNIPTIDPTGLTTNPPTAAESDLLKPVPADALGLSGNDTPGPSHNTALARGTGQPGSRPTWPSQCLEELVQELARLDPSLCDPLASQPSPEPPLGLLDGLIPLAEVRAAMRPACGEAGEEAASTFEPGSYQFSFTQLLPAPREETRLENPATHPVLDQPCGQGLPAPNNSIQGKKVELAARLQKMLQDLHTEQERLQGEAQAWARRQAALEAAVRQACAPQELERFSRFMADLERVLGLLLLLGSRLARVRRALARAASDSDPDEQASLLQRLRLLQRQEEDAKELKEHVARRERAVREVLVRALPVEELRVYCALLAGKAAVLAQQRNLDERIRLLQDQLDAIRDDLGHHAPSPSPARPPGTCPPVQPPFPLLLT
UniProt Q8N196: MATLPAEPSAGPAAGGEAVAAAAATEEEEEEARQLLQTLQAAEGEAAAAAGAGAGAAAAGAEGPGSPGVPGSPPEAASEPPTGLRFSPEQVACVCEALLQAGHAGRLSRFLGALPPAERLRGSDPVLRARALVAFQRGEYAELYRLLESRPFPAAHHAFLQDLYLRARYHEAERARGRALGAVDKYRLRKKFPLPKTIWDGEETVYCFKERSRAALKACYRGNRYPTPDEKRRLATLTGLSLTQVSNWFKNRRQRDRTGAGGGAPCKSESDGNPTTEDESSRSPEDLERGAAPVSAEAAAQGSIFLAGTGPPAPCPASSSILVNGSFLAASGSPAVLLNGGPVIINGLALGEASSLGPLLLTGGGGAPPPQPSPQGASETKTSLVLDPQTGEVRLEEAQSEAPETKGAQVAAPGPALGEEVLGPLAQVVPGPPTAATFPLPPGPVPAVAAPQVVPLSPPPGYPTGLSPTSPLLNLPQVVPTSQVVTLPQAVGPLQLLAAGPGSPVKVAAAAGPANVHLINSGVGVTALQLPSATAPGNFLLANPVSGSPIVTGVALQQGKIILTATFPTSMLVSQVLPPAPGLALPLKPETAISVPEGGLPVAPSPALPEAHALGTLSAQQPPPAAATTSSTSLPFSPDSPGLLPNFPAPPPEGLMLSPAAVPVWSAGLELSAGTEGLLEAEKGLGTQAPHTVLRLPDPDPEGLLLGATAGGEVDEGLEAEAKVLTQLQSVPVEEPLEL
UniProt Q9BRG2: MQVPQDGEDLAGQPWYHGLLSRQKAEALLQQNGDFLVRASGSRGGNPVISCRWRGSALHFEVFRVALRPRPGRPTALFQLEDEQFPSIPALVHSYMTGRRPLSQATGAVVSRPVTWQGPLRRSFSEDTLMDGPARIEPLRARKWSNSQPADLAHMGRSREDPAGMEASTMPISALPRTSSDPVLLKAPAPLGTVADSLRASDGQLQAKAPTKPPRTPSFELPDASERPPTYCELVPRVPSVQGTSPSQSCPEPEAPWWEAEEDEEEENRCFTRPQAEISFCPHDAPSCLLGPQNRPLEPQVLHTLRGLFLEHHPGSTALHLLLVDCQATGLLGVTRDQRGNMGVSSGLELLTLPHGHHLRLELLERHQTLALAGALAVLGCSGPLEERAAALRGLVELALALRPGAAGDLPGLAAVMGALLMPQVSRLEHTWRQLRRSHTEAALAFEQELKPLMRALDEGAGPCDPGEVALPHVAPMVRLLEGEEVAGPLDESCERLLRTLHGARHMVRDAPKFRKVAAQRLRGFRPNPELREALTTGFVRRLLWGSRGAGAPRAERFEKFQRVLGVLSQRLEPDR
UniProt Q9H0K1: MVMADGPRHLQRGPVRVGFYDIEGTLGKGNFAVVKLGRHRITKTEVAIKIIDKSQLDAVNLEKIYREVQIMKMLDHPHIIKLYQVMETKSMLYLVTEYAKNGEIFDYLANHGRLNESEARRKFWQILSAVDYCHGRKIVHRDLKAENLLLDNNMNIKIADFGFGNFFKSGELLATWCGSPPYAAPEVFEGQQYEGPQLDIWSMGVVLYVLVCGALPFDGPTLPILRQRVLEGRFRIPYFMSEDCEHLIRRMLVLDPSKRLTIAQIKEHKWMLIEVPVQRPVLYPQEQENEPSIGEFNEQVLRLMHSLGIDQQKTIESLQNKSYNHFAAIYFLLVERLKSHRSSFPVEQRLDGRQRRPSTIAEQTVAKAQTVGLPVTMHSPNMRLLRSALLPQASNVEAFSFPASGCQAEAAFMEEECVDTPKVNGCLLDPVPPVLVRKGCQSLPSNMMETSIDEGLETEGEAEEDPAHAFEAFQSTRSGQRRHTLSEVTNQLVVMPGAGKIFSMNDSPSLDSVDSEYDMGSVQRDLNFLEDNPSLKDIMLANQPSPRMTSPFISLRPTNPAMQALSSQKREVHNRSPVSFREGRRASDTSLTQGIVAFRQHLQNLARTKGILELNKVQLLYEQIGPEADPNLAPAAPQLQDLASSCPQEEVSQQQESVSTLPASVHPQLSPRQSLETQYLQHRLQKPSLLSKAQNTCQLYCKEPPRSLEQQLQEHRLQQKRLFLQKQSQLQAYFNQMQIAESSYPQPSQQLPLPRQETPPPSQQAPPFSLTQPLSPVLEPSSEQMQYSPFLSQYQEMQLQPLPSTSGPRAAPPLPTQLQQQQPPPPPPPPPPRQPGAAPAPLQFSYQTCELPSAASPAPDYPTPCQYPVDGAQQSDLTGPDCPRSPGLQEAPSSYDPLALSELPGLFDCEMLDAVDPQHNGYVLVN
UniProt O75326: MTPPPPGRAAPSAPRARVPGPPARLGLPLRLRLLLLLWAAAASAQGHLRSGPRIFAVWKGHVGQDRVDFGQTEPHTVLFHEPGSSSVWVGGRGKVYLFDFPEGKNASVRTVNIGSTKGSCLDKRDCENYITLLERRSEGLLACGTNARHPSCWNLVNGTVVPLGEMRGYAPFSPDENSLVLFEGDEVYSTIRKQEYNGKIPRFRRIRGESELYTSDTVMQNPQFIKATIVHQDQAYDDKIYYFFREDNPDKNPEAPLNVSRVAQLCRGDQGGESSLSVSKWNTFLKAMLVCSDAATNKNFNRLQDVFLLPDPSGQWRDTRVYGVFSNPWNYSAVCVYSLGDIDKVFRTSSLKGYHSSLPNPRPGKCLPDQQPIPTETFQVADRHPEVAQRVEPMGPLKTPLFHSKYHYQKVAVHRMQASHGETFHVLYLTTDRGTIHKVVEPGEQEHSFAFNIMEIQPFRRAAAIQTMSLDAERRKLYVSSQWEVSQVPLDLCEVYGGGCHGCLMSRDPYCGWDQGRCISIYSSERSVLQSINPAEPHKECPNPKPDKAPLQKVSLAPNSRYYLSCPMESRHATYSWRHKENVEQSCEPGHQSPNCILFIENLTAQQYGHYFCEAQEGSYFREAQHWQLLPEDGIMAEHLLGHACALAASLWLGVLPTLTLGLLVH
UniProt P55822: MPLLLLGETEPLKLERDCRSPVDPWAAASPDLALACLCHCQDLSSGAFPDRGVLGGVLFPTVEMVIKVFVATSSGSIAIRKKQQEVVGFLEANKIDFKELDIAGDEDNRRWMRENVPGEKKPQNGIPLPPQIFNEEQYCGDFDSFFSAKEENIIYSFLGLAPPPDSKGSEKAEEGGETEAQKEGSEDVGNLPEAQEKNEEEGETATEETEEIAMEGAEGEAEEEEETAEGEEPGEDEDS
UniProt Q9NP31, whole entry, looked up: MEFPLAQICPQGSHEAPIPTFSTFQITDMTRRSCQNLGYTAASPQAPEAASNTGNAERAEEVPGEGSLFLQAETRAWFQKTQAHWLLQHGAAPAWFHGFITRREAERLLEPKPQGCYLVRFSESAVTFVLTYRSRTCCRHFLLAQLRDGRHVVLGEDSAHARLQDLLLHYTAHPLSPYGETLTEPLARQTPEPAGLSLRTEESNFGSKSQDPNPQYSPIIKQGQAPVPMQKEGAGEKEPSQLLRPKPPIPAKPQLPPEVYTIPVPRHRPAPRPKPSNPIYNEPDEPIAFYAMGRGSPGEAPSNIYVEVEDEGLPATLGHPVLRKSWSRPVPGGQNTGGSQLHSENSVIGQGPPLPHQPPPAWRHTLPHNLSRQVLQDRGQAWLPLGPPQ
UniProt P05546: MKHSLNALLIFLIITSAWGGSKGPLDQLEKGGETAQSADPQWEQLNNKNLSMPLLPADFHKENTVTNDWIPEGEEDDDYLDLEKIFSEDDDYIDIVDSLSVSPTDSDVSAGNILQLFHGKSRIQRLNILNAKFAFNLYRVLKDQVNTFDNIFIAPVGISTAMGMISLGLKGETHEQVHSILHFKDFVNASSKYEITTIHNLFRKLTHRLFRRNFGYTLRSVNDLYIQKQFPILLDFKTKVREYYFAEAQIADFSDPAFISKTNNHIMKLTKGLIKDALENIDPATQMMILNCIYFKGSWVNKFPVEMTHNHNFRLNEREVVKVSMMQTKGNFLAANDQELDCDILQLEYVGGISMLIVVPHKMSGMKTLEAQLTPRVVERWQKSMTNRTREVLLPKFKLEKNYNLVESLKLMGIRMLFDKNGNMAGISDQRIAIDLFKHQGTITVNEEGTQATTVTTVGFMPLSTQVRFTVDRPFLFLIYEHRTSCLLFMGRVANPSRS
UniProt Q96LD8: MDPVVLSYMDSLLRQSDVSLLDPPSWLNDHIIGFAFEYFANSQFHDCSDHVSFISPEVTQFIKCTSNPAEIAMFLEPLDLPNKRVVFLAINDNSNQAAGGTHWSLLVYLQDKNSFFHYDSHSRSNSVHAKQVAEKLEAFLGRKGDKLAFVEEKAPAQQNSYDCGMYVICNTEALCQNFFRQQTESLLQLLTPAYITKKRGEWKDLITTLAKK
UniProt Q8WWX9, whole entry, looked up: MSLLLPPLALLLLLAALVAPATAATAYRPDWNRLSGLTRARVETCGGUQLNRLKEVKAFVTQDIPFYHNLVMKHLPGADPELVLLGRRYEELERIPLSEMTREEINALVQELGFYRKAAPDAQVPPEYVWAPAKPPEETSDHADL
UniProt O15304: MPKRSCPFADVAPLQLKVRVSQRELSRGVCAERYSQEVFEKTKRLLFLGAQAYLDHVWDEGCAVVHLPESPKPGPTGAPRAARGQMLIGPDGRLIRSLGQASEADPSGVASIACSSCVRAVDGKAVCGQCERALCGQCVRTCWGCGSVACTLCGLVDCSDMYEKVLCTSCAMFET

Some of the results follow.

Compound in the first assay: CC1=C(C=C(C=C1)NC(=O)C2=CC(=CC=C2)N(C)C)NC(=O)C3=CC=C(C=C3)O
The experiment in a line: log2 fold change, soluble protein after heating vs DMSO (PISA); higher = thermal stabilisation; K562 cells, 10 uM, 30 min; active = over 0.2 and 3.5 SD of the protein, either way, in both replicates (recomputed). The essentials: (§1)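 Aliquots of K562 cells (2×10^6 cells/mL) treated with 10 μM compound for 30 min were heated for 3 min over 48°C-58°C. After pooling and extraction in PBS with 0.5% NP-40 at 4°C, soluble protein from a 21,000xg, 90 min spin was quantified by TMTpro 16plex LC-MS/MS with channel sums equalised. Thermal stability is expressed against control samples, from duplicates, as a log2 fold change.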
Take SERBP1 isoform 3 (UniProt Q8NC51): the log2 fold change is inactive: 0.039.
On to SECISBP2 (UniProt Q96T21), for which the log2 fold change was inactive: 0.231.
With SEPTIN2 (UniProt B5MCX3), the log2 fold change was inactive: 0.045.
The same measure, in the same setting: with SIRT3 (UniProt Q9NTG7) the figure was inactive: -0.202.
The same measure, in the same setting: with SKAP2 (UniProt O75563) the figure was inactive: -0.047; with SHROOM1 (UniProt Q2M3G4), inactive: 0.194; with SIX5 (UniProt Q8N196), inactive: -0.039.
In the case of SH2D3A (UniProt Q9BRG2), the log2 fold change is inactive: 0.051.
With SIK2 (UniProt Q9H0K1), the log2 fold change is inactive: 0.372.
SELENOI (UniProt Q9C0D9): the log2 fold change is inactive: 0.016.
Turning to SEMA7A (UniProt O75326), the log2 fold change was inactive: -0.01.

Compound in the next assay: CC1=CC=C(C=C1)SC2=C3C=C(SC3=CN=C2)C(=O)N
Described as above. The essentials:
as §1
Consider SERBP1 isoform 3 (UniProt Q8NC51), for which the log2 fold change was inactive: -0.108.
On to SHROOM4 (UniProt Q9ULL8), for which the log2 fold change is inactive: -0.653.
With SH3BGR (UniProt P55822), the log2 fold change was inactive: 0.058.
On to SKAP2 (UniProt O75563), for which the log2 fold change is inactive: -0.05.
As for SHROOM1 (UniProt Q2M3G4), the log2 fold change was inactive: 0.065.
SH2D2A isoform 2 (UniProt Q9NP31): the log2 fold change is inactive: 0.104.
Same read-out and setting: with SIK2 (UniProt Q9H0K1) the figure was inactive: 0.01.

Compound in the next assay: CC1=NC(=CC=C1)C2=C(N=C(N2)C(C)(C)C)C3=CC4=NC=CN=C4C=C3
The assay is described as above. The essentials: as §1
For the target SIGIRR (UniProt H0YDR5), the log2 fold change was inactive: 0.011.
Same read-out and setting: with SESN1 isoform 2 (UniProt Q9Y6P5) the figure was inactive: 0.105.
Regarding SIRT3 (UniProt Q9NTG7), the log2 fold change was inactive: 0.04.
SKAP2 (UniProt O75563): the log2 fold change was inactive: -0.08.
Take SH2D2A isoform 2 (UniProt Q9NP31): the log2 fold change was inactive: -0.273.
With SIX5 (UniProt Q8N196), the log2 fold change was inactive: -0.047.
With SH2D3A (UniProt Q9BRG2), the log2 fold change is inactive: 0.103.
Turning to SERPIND1 (UniProt P05546), the log2 fold change was inactive: 0.029.
As to SELENOI (UniProt Q9C0D9), the log2 fold change is inactive: 0.243.
Turning to SERPINB6, A0A2R8Y7E5, the log2 fold change was inactive: 0.021.
With SENP8 (UniProt Q96LD8), the log2 fold change was inactive: 0.279.

Compound in the next assay: CCCCN(Cc1ccc(C(=O)NO)cc1)C(=O)Nc1ccccc1 [Nexturastat A]
The description is as above. The essentials:
as §1
Turning to SERBP1 isoform 3 (UniProt Q8NC51), the log2 fold change was inactive: 0.171.
In the case of SERPINA3 (UniProt P01011), the log2 fold change was inactive: 0.295.
In the case of SH3BGR (UniProt P55822), the log2 fold change is inactive: 0.023.
SELENOM (UniProt Q8WWX9): the log2 fold change was inactive: 0.018.
As for SHROOM1 (UniProt Q2M3G4), the log2 fold change is inactive: 0.325.
On the same count and under the same terms, with SERPIND1 (UniProt P05546) the figure was inactive: 0.378; with SIVA1 (UniProt O15304), inactive: 0.053; with SERPINB6, A0A2R8Y7E5, inactive: 0.073.
Take SEMA7A (UniProt O75326): the log2 fold change was inactive: 0.154.

Compound in another assay: CCCS(=O)(=O)Nc1ccc(F)c(C(=O)c2c[nH]c3ncc(-c4ccc(Cl)cc4)cc23)c1F [vemurafenib]
Described as above. The essentials:
as §1
Turning to SHQ1 (UniProt Q6PI26), the log2 fold change was inactive: 0.096.
Regarding SEPTIN2 (UniProt B5MCX3), the log2 fold change was inactive: -0.106.
For the target SHROOM4 (UniProt Q9ULL8), the log2 fold change was inactive: -0.174.
For the target SIRT3 (UniProt Q9NTG7), the log2 fold change is inactive: 0.02.
SH2B1 (UniProt Q9NRF2): the log2 fold change was inactive: -0.023.
Same read-out and setting: under SERPINB7 (UniProt O75635) stands inactive: -0.01; under SH2D3A (UniProt Q9BRG2), inactive: -0.254; under SECISBP2L (UniProt Q93073), inactive: 0.182.
On to SERPINB6, A0A2R8Y7E5, for which the log2 fold change is inactive: 0.103.
As for SEMA7A (UniProt O75326), the log2 fold change is inactive: -0.008.

Compound in the next assay: CCCS(=O)(=O)Nc1ccc(F)c(C(=O)c2c[nH]c3ncc(Cl)cc23)c1F
The description is as above. The essentials: as §1
As to SERBP1 isoform 3 (UniProt Q8NC51), the log2 fold change is inactive: -0.05.
Turning to SHROOM4 (UniProt Q9ULL8), the log2 fold change was inactive: -0.188.
Regarding SH3BGR (UniProt P55822), the log2 fold change is inactive: 0.036.
Turning to SKAP2 (UniProt O75563), the log2 fold change was inactive: -0.217.
For SHROOM1 (UniProt Q2M3G4), the log2 fold change was inactive: -0.146.
With SH2D2A isoform 2 (UniProt Q9NP31), the log2 fold change is inactive: -0.098.
On to SIK2 (UniProt Q9H0K1), for which the log2 fold change was inactive: -0.021.

Compound in another assay: CCCc1cc(C)[nH]c(=O)c1CNC(=O)c1cc(-c2ccnc(N3CCN(C)CC3)c2)cc2c1cnn2C(C)C
Described as above. The essentials:
as §1
Consider SERAC1 (UniProt Q96JX3), for which the log2 fold change is inactive: -0.015.
For SERBP1 isoform 3 (UniProt Q8NC51), the log2 fold change was inactive: 0.023.
For SECISBP2 (UniProt Q96T21), the log2 fold change is inactive: -0.35.
The same measure, in the same setting: under SHROOM4 (UniProt Q9ULL8) stands inactive: 0.101.
SIRT3 (UniProt Q9NTG7): the log2 fold change was inactive: 0.078.
For the target SH3BGR (UniProt P55822), the log2 fold change is inactive: 0.036.
Take SEMG1 (UniProt P04279): the log2 fold change was inactive: -0.089.
For the target SKAP2 (UniProt O75563), the log2 fold change is inactive: -0.009.
Turning to SEPTIN7 isoform 2 (UniProt Q16181), the log2 fold change was inactive: -0.067.
For SERPINB7 (UniProt O75635), the log2 fold change was inactive: -0.045.
The same measure, in the same setting: with SH2D2A isoform 2 (UniProt Q9NP31) the figure was inactive: -0.071; with SFXN1 (UniProt D6RDG7), inactive: -0.078; with SIX5 (UniProt Q8N196), inactive: 0.021.
For SIK2 (UniProt Q9H0K1), the log2 fold change is inactive: -0.262.
In the case of SERPIND1 (UniProt P05546), the log2 fold change is inactive: -0.296.
As for SERPINB6, A0A2R8Y7E5, the log2 fold change was inactive: 0.074.
